No constants are given. Whether binding was seen depends on the method and setting. Binding seen in cells or lysates may run through a third protein. A yes stands for co-enrichment or nearness to the bait. Other partners may have been found. A no says only that the protein was not detected with the bait.

Amino acid sequences for entries named in this document (tags omitted).
UniProt Q14839: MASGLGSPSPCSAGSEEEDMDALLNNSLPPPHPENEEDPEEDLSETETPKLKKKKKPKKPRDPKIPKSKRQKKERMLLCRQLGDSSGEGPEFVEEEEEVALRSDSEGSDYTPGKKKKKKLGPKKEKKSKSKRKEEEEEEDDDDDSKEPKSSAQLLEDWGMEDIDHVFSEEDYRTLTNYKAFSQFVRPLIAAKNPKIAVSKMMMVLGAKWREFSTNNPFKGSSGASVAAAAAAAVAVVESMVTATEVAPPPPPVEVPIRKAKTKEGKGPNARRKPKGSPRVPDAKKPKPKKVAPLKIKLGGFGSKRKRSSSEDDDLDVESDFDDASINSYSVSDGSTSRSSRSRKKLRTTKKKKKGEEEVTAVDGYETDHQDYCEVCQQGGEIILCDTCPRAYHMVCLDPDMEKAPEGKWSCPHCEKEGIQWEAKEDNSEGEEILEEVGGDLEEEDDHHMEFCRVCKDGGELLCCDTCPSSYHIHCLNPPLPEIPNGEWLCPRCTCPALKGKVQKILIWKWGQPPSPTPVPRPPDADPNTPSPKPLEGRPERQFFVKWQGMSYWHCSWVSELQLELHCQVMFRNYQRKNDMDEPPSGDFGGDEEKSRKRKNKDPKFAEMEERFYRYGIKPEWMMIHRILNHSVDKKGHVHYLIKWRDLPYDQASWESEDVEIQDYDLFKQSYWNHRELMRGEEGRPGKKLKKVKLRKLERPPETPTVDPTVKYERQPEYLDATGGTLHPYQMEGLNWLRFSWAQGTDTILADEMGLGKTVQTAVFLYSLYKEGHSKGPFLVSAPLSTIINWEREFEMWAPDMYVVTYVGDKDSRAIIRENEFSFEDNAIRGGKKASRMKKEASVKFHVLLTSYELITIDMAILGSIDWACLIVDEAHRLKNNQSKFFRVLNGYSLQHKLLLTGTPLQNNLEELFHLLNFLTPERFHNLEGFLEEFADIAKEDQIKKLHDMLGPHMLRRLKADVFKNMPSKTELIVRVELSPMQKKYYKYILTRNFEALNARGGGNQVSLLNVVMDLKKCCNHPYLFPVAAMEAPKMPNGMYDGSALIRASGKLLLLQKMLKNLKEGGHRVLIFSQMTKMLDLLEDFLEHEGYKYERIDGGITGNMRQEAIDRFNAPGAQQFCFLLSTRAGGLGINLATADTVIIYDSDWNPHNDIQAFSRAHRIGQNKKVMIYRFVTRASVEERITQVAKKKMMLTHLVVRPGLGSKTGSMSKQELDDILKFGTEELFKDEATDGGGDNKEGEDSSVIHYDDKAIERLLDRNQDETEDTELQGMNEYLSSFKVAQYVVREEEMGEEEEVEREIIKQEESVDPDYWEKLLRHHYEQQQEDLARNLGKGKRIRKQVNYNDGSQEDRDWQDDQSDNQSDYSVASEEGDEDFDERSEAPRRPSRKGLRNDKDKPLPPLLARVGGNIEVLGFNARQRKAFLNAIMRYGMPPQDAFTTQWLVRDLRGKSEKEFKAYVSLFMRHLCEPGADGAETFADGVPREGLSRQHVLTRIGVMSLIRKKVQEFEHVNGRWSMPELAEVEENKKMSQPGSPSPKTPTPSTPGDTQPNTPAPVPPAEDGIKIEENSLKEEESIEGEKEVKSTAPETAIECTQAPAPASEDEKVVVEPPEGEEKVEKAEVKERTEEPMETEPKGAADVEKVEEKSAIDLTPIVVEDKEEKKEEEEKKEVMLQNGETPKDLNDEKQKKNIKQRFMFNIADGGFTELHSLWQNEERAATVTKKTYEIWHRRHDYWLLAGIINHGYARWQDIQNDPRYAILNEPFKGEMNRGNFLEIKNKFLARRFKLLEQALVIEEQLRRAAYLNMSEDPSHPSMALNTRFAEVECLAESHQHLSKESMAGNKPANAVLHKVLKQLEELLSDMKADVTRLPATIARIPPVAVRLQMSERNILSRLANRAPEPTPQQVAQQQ
UniProt P52294: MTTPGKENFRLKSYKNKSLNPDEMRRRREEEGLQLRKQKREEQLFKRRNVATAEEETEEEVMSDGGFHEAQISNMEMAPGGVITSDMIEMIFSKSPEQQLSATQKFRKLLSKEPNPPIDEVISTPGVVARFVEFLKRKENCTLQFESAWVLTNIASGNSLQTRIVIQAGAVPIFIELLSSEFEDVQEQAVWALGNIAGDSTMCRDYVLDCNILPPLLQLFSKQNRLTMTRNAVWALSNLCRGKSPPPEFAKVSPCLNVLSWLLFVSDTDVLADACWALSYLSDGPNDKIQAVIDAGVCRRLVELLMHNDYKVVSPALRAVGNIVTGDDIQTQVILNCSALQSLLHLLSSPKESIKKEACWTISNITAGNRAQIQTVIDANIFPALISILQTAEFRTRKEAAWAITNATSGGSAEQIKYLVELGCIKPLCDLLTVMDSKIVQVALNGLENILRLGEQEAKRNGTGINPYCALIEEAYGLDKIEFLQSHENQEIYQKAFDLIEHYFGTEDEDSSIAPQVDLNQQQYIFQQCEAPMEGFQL
UniProt O15131: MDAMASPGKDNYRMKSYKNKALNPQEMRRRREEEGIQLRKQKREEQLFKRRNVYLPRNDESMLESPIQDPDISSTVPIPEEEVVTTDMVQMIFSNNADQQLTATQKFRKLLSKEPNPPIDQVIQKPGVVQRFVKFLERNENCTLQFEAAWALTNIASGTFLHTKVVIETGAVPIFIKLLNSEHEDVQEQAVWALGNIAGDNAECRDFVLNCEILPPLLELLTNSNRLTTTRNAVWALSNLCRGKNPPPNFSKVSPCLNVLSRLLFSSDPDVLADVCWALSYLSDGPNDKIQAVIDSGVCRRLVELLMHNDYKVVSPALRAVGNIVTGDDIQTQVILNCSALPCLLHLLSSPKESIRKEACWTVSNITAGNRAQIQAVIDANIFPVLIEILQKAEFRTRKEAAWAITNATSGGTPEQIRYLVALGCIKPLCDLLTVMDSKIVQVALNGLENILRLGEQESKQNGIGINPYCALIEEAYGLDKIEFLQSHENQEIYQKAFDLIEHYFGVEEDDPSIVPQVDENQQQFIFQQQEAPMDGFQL

The test concerns the target C-terminal GFP-tagged CHD4 wild-type (human) (UniProt Q14839). The experiment in a line: affinity purification with mass spectrometry; GFP-Trap A on nuclear extract of stably transfected HEK 293 cells, 24 h doxycycline; beads not blocked; SDS gel slices, LC-MS/MS; control: binding control agarose beads.
Regarding importin α5 (from UniProt P52294 1-538), the binding result is recorded as “binds”.

With importin α6 (from UniProt O15131 1-539), the binding result is reported as “binds”.

As to importin α7 (from UniProt O60684 1-536), the binding result was “binds”.

Consider importin β1 (from UniProt Q14974 1-876), for which the binding entry is reported as “no binding”.
